Some of the results follow. Shown are side measurements of this screen, not its main read-out; they come without a call. The list favours compounds with an active or inconclusive main result. Potencies come from curve fits of mixed quality, noted in brackets.
Experiment: Cell signaling CRE-BLA (Fsk stim)
Settings: CHO CRE-bla reporter (cAMP response element driving beta-lactamase), forskolin EC10, beta-lactamase ratio; measured here: 460 nm blue channel
Summary of the method: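 Beta-lactamase reporter under a cAMP responsive element in CHO cells; compounds tested in titration series against EC10 NKH 477, 3 h at 37 °C. Read-out: CCF4 FRET ratio 460nm/530nm (excitation 405nm) giving %Activity, fitted to AC50.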

| Structure (SMILES) | AC50 |
| --- | --- |
| C=CCc1c(C)nc(SC)nc1Nc1ccc(C(C)=O)cc1 | 10 µM [rising, partial curve] |
| Cc1ccn2cc(CNS(=O)(=O)c3ccc(Cl)s3)nc2c1 | 5.01 µM [rising, partial curve] |
| CN1CCN(c2ncc3nc(-c4cc(F)cc(F)c4)c(=O)n(C)c3n2)CC1 | 12.6 µM [rising, partial curve] |
| O=C(NCc1ccco1)c1cc(-c2ccc(Cl)cc2)on1 | 0.00794 µM [falling, full curve] |
| CCN(CC)S(=O)(=O)c1cc(C(=O)Nc2nncs2)c(Cl)cc1Cl | 5.01 µM [falling, full curve] |
| COc1cccc(Cn2c(=O)c(-c3cccs3)nc3cnc(N4CCOCC4)nc32)c1 | 10 µM [rising, partial curve] |
| CCCCn1c(SCC(=O)Nc2ccc3c(c2)OCO3)nc2c1c(=O)n(C)c(=O)n2C | 5.01 µM [rising, full curve] |
| CC(C)Sc1nc(N)c2c3c(sc2n1)CN(C)CC3 | 5.01 µM [falling, partial curve] |
| Cc1cccc(N2CCN(C(=O)CS(=O)(=O)Cc3nc(-c4ccccc4F)oc3C)CC2C)c1 (stereo not drawn) | 15.8 µM [falling, single point] |
| COc1ccc(-c2cc3nc4c(c(=O)n3[nH]2)CCC4)cc1 | 25.1 µM [rising, single point] |
| Cn1c(=O)c2sccc2n2c(CCCC(=O)NCc3ccc4c(c3)OCO4)nnc12 | 0.00316 µM [falling, full curve, poor fit] |
| COC(=O)[C@@]1(Cc2ccc(F)cc2)[C@H]2c3cc(C(=O)N4CCCC4)n(CCc4ccc(OC)c(Br)c4)c3C[C@H]2CN1C(=O)c1ccccc1 | 3.16 µM [rising, partial curve] |
| C/C(=N\O)C(=O)C(CN1CCCCC1)CN1CCCCC1 | 3.16 µM [falling, full curve, poor fit] |
| C=C[C@@]1(C)C=C2CC[C@@H]3[C@](C)(CCC[C@@]3(C)C(=O)O)[C@H]2CC1 | 12.6 µM [rising, single point] |
| CCOC(=O)c1c(NC(=O)CSc2nc3cccnc3n2C)sc(C(C)=O)c1C | 3.98 µM [rising, partial curve] |
| N=C1C(c2nc(-c3ccc(F)cc3)cs2)=C(O)CN1CCCN1CCOCC1 | 5.01 µM [rising, single point] |
| Cc1cccc(-n2ncc3c(Nc4ccc(F)cc4)ncnc32)c1 | 1 µM [rising, full curve, poor fit] |
| Cc1nc(N(C)C)c2sc(=S)n(C)c2n1 | 2.51 µM [rising, full curve] |

Arranged by heavy-atom count (rising): some entries from above

| Structure (SMILES) | AC50 |
| --- | --- |
| CC(C)Sc1nc(N)c2c3c(sc2n1)CN(C)CC3 | 5.01 µM [falling, partial curve] |
| C=C[C@@]1(C)C=C2CC[C@@H]3[C@](C)(CCC[C@@]3(C)C(=O)O)[C@H]2CC1 | 12.6 µM [rising, single point] |
| Cc1cccc(N2CCN(C(=O)CS(=O)(=O)Cc3nc(-c4ccccc4F)oc3C)CC2C)c1 (stereo not drawn) | 15.8 µM [falling, single point] |

From PubChem BioAssay AID662 (National Center for Advancing Translational Sciences (NCATS), 2007)
